Data from patent publication CN109021107A.
Results are given in words; binding and its absence hold for the method and conditions named. A result given as binding can be weak or reduced; the word gives no strength.

Target: recombinant monkey PD-L1 (monkey)
Assay: ELISA, coated recombinant protein, antibody 1ug/ml, anti-human IgG-HRP

B1: HUL02 (antibody, human IgG1, kappa, N297A, V domains shown)
VH: EVQLQESGPGLVKPSQTLSLTCTVSGDSFSSGYWNWIRQHPGKGLEYIGYVSYTGSTYYIPSLKSRVTISRDTSKNQFSLKLSSVTAADTAVYYCAGYRDWLHGYFDYWGQGTTVTVSS
VL: DIQMTQSPSSLSASVGDRVTITCKASQNVMDNVAWYQQKPGKAPKRLIYSASYRFSGVPSRFSGSGSGTEFTLTISSLQPEDFATYYCQQYNGYPLTFGQGTKLEIKR
binding: binds
